Source: article PMC6581859
These are yes or no findings as the source states them, for the method shown. In cells and extracts the contact can be indirect. Binding calls can cover weak binding; strength is not graded here. Sequences can lack the tags named with a protein. Each block holds one binder with its values, some of them ahead of it.

Molecular target: CandA-C1 (BiFC fusion) (A. nidulans)
Assay: split reporter; BiFC microscopy in A. nidulans hyphae, wild-type background and csnE deletion strain; nuclei stained with H2A-RFP or DAPI

binding: binds
B1: CandA-C (BiFC fusion) (protein, UniProt Q5BAH2 1-1041)
chain: MSSDAMSDYSHDDEHDPQTDELRETALVTLEALISSCSSQMQSYLPNTINSALRFLKYDPNVADMGEDEEMSGTQDDGSEDDVTEEPDLEDDDFEDFEEEGGYSDIDDMSWKVRRCAAKLLYAVISTYGRGRALDDTSLYQQIAPAIVARFNKEREESVKLELVSTMDALVRKTAEGSMIMTSSGFLESVGSGSKISRKRRRQDSDASMIDFEPSMGTSSAAGTPLAAPSSPQSGPQSELANALPVIVRSLVTMWKQASIHLKQAIIILLKSLALVRYGGLADHLQQIEDPIADVLKSSLSGAPSASIGISASAGTLQIETLSLISAISETHASDALLPFLIALIPGVIVAVNDKNYKVSSEALAAVEQIVKALTPPRVTTASQDLIFQLEKLYDVSHSRITDTSADLEVRQRAIHVLGVLLARTSDEQGSAFLSFEKRSKGLVTLVDRLKNETTRLSAVRAIDDVAVLCSRKDDVDSNWVREVTAELGAQLRKSDRVLRSASLETLRSLSMNPNTRAHYDGETMKNLEECLIPLISVEDVHLLAPSLIIIAKLVPGNAQLLVNDGLVSAICSIVRTSLAGTVLKALLLLVKVIGEEGSGLTLMQNLLQDVGVNGDTSVVGRSIGTLLVHGGSNVGVRMEDFLSELQKTQDPQRQCLALAILGESALRLGASCSLTPNVFIPHFNSKSEKVRLASATALGNAAAGNVKAYLPTILGGLEKSDPQSYLLLHSVKELLQHPEMVRRDVAPSALKLWQALLVVSKEEDNRAMGAECVGRLALLDPPAYIPQFQEYLANGDAGIRSIVVSAFRFTLSDSRDVFNDVLRPLIVPLLVNMLSDRDLGNHRLALTTLNSAIHNKLALILPHLGELLPAVLGDTQIKPELIREVQMGPFKHKVDDGLELRKSAYETVYAALDTSFSLSHITELYSRILAGIDDEQDIRTICNLMTSKLITLAPEETQRHLDALSERYTAILNFKPKENAVKQEIEKAQEASTGVLKITRELSKAFPNAETMGDHHKWKAYMEMVRAQFGTQLSNLESEF

binding: binds
B2: CandA-N (BiFC fusion) (protein, UniProt C8VP82 1-339)
chain: MGDRHTIQQNLNGLLSKLNDPDPDMRYMSLNDLYGILSNPCSSYLAHDQASATRLAEGLLKALDDQHGDVQNQALKCLGPLVARLPLEGLRTLLERLSNLTTSQTIDTSVPNTALRVIVTALPRPQPNQAPSPDANMAYSAVSEVLIPRLIGPGPHKRRGSVTKGMLEKDPAKGFSSDAIDVLIQVASCFGALLQESELTALEKAVMSIIDNDTAGTVVTKRALAAISALVVYFSDEQFGILVSELVERFNSPQLSTVHRRHLIAAVGCLARTVPAKFGPHLSTLAPFIFSAVGEDNLEVSHVLHYLCTSASNVYSSRNKPKIYHQYRQLPKEKLITGM
